Measurements reported in article PMC12040169 (PLOS Biology, 2025).
This is one part of the list.

system: T1, CTL2-GFP (C. trachomatis L2/434/Bu, GFP-expressing); design: species or system HeLa; Intracellular C. trachomatis growth in HeLa cells, bulk GFP fluorescence relative to DMSO; settings: bulk GFP, single well; 28.5 h, 10 µM; inhibitor
T1 construct: L2/434/Bu, GFP-expressing

SMILES	% of control remaining [%]
OC(COc1cccc2c1CCCC2)CN1CCC(O)(c2ccc(Cl)c(C(F)(F)F)c2)CC1 (stereo not drawn) [CBK003581]	69.4637
CCOC(=O)c1cnc2ccc(Br)cc2c1NCc1cccnc1 [CBK265030]	100
Cc1cccn2c(=O)cc(CN3CCCC(N4CCNC4=O)C3)nc12 (stereo not drawn) [CBK304947]	155.257
Cc1cc(Cl)cc(Cl)c1S(=O)(=O)Nc1nc2c(s1)CN(C(=O)N1CCOCC1)CC2 [CBK000931]	111.41
Cc1ccc2nc(C(=O)O)cc(OCC(=O)Nc3ccccc3F)c2c1 [CBK287255]	137.509
CC(NC(=O)N1CCSCC1)c1cccc(N2CCCC2)c1 (stereo not drawn) [CBK305230]	114.021
Cn1c(=O)c2c(nc(CN3CCCCC3)n2CCN2CCOCC2)n(C)c1=O [CBK269281]	150.348
O=C(O)CCN1CCCCC1 [CBK012168C]	116.765
CC(C)NC(=O)NC[C@H]1C[C@@H]2CCN1C[C@@H]2c1cc(-c2ccccc2)nn1C [CBK289097]	116.174
O=C(N/N=C/c1ccc([N+](=O)[O-])cc1)c1ccccc1Cl [CBK261775]	106.907
O=S(=O)(N1CCCCC1)N1CCCN(S(=O)(=O)N2CCCCC2)CC1 [CBK268939]	141.156
COc1ccc(C[C@@]23CCC(=O)C[C@@H]2N(C)CC3)cc1 [CBK009720]	113.983
Cc1ccc(-c2noc(CSc3nnc(-c4ccncc4)n3-c3ccc(C)cc3)n2)cc1 [CBK268879]	96.3295
O=C(NCc1ccccc1)C1CCN(C(=O)Cc2c(F)cccc2Cl)CC1 [CBK297919]	132.733
O=C(N[C@H]1CO[C@H]2[C@@H]1OC[C@@H]2n1nnnc1Oc1ccc(-n2ccnc2)cc1)c1ccco1 [CBK289486]	155.619
CC(C)CNc1nnc(-c2ccccc2[N+](=O)[O-])s1 [CBK076755]	123.414
C/C(=N/Nc1ccc([N+](=O)[O-])cc1[N+](=O)[O-])C1CC1 [CBK260921]	117.485
Cc1ccccc1C(NC(=O)C1CCN(C(=O)c2ccccc2)CC1)c1ccccn1 (stereo not drawn) [CBK059720]	118.122
CC(C)COc1ccc(C(CC(=O)O)C(=O)O)cc1 (stereo not drawn) [CBK286759]	118.213
CN(C)CCNc1cc(-c2ccc3ccccc3c2)nc2ccccc12 [CBK278186B]	16.7046
NC(=O)c1ccc2[nH]c(-c3cscn3)nc2c1 [CBK017800]	122.831
Cc1cc(C(=O)CSc2nccc(C(F)(F)F)n2)c(C)n1C1CC1 [CBK305238]	121.819
COc1cccc(-c2nnc(NC(=O)c3ccc4c(c3)OCCO4)o2)c1 [CBK287591]	113.981
CCNC(=O)NCc1ccc(F)cc1 [CBK115581]	86.5254
COc1ccc2nc(Nc3nc(-c4cccnc4)cs3)sc2c1 [CBK287482]	156.764
Cc1nonc1CC(=O)N1C2CCC1CC(c1ccc(F)cc1)C2 (stereo not drawn) [CBK283739]	136.644

SMILES	% of control remaining [%]
CC(=O)OC(COc1ccc2ccccc2c1Br)Cn1cnc2ccccc21 (stereo not drawn) [CBK266083]	86.6748
Cc1ccn2cc(-c3cc4c(ccc5ccccc54)oc3=O)nc2c1 [CBK287313]	116.715
O=C1NCCC[C@@H]1NC(=O)[C@H]1CN(C(=O)c2ccccc2)CCN1C(=O)c1cccnc1 [CBK289634]	131.137
NS(=O)(=O)c1ccc(CCNC2=CC(=O)CC(c3ccco3)C2)cc1 (stereo not drawn) [CBK265852]	165.274
Cc1cccn2c(=O)cc(CN3CCC(c4cn[nH]c4)CC3)nc12 [CBK305764]	133.091
COc1ccc(S(=O)(=O)N(CC(=O)N2CCc3ccccc3C2)C2CCCCC2)cc1Cl [CBK268525]	95.1489
CC(=O)Nc1ccc(CNC(=O)c2ccc(C(F)(F)F)cn2)cc1 [CBK252121]	129.902
NCc1cnc2c(c1)CCC2 [CBK018584G]	99.8781
CCOc1cc(/C=C2/NC(=O)N(c3ccccc3)C2=O)cc(Cl)c1OCc1cccc(C(=O)O)c1 [CBK265160]	136.791
Cc1ccc(-c2ccc(/C=C/c3cc(C(F)(F)F)nc(=O)[nH]3)o2)cc1Cl [CBK018169]	115.246
CC1(C)[C@H](Cc2cc(COc3ccccc3)on2)C[C@@H]1NC1CCOCC1 [CBK289694]	140.055
CCc1nc2ccc(C(=O)N(C)CCN(C)C)cn2c1N(C)C(=O)C1CCCCC1 [CBK145771]	118.463
C(=C\c1ccccc1)/CN1CCN(C2CCN(CCc3ccccc3)CC2)CC1 [CBK261923]	94.4148
O=C(NCc1c(Cl)cccc1Cl)N1CCN(c2ccccc2)CC1 [CBK155194]	98.4265
C=CCNC1OC(CO)C(O)C(O)C1O (stereo not drawn) [CBK261357]	100
N#Cc1cccc(CN2CCCC3(CCN(C(=O)Cc4c[nH]c5ccccc45)C3)C2)c1 (stereo not drawn) [CBK132032]	112.538
O=c1[nH]c2ncc(-c3cccc(-c4ccccc4)c3)nc2n1Cc1ccccc1 [CBK064252]	160.994
Cn1ccc(CN2CCOC(c3nc(C(C)(C)C)n[nH]3)C2)cc1=O (stereo not drawn) [CBK304495]	130.099
Cc1cc(NS(=O)(=O)c2c(C)nn(C)c2Cl)n(C)n1 [CBK067245]	120.985
CCn1cc(S(=O)(=O)Nc2ccc3c(ccn3C)c2)c(C)n1 [CBK282818]	103.904
Cn1c(=O)c2c(nc(CN3CCN(C(=O)c4ccco4)CC3)n2Cc2ccccc2)n(C)c1=O [CBK269437]	117.919
CC(=O)c1sc(NC(=O)Cc2ccc(C)cc2)nc1C [CBK287760]	117.192
O=C(C1CN(S(=O)(=O)c2ccccc2)CCN1S(=O)(=O)c1ccccc1)N1CCCCC1 (stereo not drawn) [CBK262686]	128.77
CC(C)S(=O)(=O)N1C[C@@H](c2ccccc2)[C@H]2[C@H]1CCCCCN2C [CBK283083]	135.741
O=C(Cc1ccc(F)cc1)N1CCCC(c2nccnc2-c2cccc(C(F)(F)F)c2)C1 (stereo not drawn) [CBK286210]	101.334
O=C(O)c1ccc(Oc2cccc([N+](=O)[O-])c2)cc1C(=O)O [CBK261179]	96.9913

In the list so far, these contain an NH in an aromatic ring:
SMILES	% of control remaining [%]
NC(=O)c1ccc2[nH]c(-c3cscn3)nc2c1 [CBK017800]	122.831
Cc1cccn2c(=O)cc(CN3CCC(c4cn[nH]c4)CC3)nc12 [CBK305764]	133.091
Cc1ccc(-c2ccc(/C=C/c3cc(C(F)(F)F)nc(=O)[nH]3)o2)cc1Cl [CBK018169]	115.246
N#Cc1cccc(CN2CCCC3(CCN(C(=O)Cc4c[nH]c5ccccc45)C3)C2)c1 (stereo not drawn) [CBK132032]	112.538
O=c1[nH]c2ncc(-c3cccc(-c4ccccc4)c3)nc2n1Cc1ccccc1 [CBK064252]	160.994
Cn1ccc(CN2CCOC(c3nc(C(C)(C)C)n[nH]3)C2)cc1=O (stereo not drawn) [CBK304495]	130.099

(list continues)

SMILES	% of control remaining [%]
COCCn1c(C)cc(C(=O)CSc2cc(C)c3ccccc3n2)c1C [CBK266437]	111.982
COc1ccccc1CNCc1ccccn1 [CBK262261]	135.377
NC(=O)c1cccc(-c2cnc(N)c(NC3CCOCC3)n2)c1 [CBK063836]	119.505
CC(C)c1ccc(/C=C/C(=O)NCC2COc3ccccc3O2)cc1 (stereo not drawn) [CBK149619]	76.5448
O=C(Cn1ncc2cccn2c1=O)Nc1ccc(F)cc1 [CBK283672]	100.269
COCCN1CCCC(NC(C)c2ccc(OC)c(F)c2)C1 (stereo not drawn) [CBK305099]	123.088
Cc1ccc(S(=O)(=O)NCC(=O)N2CCN(c3ccc(Cl)cc3)CC2)cc1 [CBK091315]	128.575
CS(=O)(=O)N1CCC(C(=O)NNC(=S)Nc2cccc3ccccc23)CC1 [CBK266811]	128.85
O=C1COc2ccccc2C/C=C/CC2(CCCNC2)CN1 (stereo not drawn) [CBK292029]	125.883
O=C(NNC(=O)c1ccc2c(c1)C(=O)N(Cc1ccco1)C2=O)c1cccnc1 [CBK267403]	122.372
CNC(=O)c1ccc(-c2ccc(CNC(=O)C3(c4cccc(F)c4)CCCC3)cc2)nc1C [CBK286013]	89.6051
CC1(C)Cc2ccccc2C(NCCC(=O)O)=N1 [CBK023412]	121.338
Cc1oc(NC(=O)CN2CCN(c3ccccc3)CC2)c(C#N)c1C [CBK306044]	144.929
CN1C(CC(O)c2ccccc2)CCCC1C(=O)c1ccccc1 (stereo not drawn) [CBK268467C]	82.4974
Cc1ccccc1NC(=O)Cn1c(=O)n(CC(=O)Nc2ccccc2C)c2ccccc21 [CBK266938]	153.27
O=C(NCCNCc1ccco1)c1ccc(F)cc1 [CBK266873G]	80.4626
Nc1ncc(-c2ccc(C(F)(F)F)cc2)c(C2CCCN(C(=O)CN3CCCC3)C2)n1 (stereo not drawn) [CBK285649]	134.745
COCCNc1nc(-c2cccc3ccccc23)cnc1N [CBK063574]	130.359
COCCN1CCn2c(nc3cc(NC(=O)c4ccccc4)ccc32)C1 [CBK307410]	116.007
CN1C(=O)C2(N=C(N)NC(Nc3ccc(F)cc3)=N2)c2ccccc21 (stereo not drawn) [CBK270285]	120.495
CC(NC(=O)C1(Cn2ccnc2)CC1)c1nc(-c2ccccn2)no1 (stereo not drawn) [CBK307514]	95.724
CCN(CC)C(=O)C1CCCN(C(=O)NCCN2CCOCC2)C1 (stereo not drawn) [CBK156128]	116.507
N[C@H](CCc1nc2ccccc2[nH]1)C(=O)O [CBK172614]	109.669
CCOc1cc(NC2CCN(C(=O)CC3CCCCC3)CC2)ncn1 [CBK305506]	85.5091
CSc1nc(O)c(C(c2cccc([N+](=O)[O-])c2)c2c(O)nc(SC)nc2O)c(O)n1 [CBK265370]	100
CCOc1ccc(CN(C)C(=O)Nc2cc(C)on2)cc1 [CBK306216]	111.447
